Measurements reported in patent publication US8987207B2, “Peptides which have analgesic effects and which inhibit ASIC channels” (Centre National de la Recherche Scientifique—CNRS, priority 2010, dated 2015).
Where a chain is given by its changes, count along the chain named. pIC50: −log10 of the molar value. Part of at least one peptide drawing is inferred or uncertain, most often the ends. Bridges are numbered along the chain shown (N, C = ends). Where no end group is shown, it is not given here.

Assays:
[1] = biological target: T1, rat heteromeric ASIC1a+ASIC1b channels (Rattus norvegicus, UniProt P55926); assay: Patch-clamp, rat heteromeric ASIC1a+ASIC1b current in COS cells; format: cell-based; details: read-out: IC50, inhibition of the rat heteromeric ASIC1a+ASIC1b current, ratio 1:1, whole cell patch-clamp
T1 construct: expressed in transfected cells; host or cells: COS cell line
T1 sequence (P55926 1-526): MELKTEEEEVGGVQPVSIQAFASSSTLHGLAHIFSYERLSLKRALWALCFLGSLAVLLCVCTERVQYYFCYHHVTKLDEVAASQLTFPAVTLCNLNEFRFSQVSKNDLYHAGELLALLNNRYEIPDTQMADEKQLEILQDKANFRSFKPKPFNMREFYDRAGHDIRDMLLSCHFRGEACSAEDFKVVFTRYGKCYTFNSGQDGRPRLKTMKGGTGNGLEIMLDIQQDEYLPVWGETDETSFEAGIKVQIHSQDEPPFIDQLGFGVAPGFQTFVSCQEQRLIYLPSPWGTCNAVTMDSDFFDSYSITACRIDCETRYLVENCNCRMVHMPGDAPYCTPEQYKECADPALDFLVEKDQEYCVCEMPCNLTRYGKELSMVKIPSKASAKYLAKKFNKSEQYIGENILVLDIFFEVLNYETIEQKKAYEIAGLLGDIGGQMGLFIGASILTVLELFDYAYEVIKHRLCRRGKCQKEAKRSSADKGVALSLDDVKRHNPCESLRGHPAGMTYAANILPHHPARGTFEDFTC
T1 sequence (P55926 1-559 isoform P55926-3): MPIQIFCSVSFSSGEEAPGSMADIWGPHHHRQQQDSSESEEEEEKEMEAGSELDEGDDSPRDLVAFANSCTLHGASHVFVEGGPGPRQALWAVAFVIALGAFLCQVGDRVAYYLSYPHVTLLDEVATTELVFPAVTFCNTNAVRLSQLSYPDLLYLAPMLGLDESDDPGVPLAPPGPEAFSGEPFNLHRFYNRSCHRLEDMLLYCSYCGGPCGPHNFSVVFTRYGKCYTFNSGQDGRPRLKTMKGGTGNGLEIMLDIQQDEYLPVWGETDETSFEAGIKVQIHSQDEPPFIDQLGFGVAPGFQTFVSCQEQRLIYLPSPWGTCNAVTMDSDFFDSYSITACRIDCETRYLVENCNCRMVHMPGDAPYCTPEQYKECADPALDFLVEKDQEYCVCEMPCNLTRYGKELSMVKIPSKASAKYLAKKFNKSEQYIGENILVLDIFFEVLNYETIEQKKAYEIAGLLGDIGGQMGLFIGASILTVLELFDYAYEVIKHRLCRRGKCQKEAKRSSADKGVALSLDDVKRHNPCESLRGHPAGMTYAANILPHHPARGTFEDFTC

[2] = biological target: T2, rat heteromeric ASIC1a+ASIC2a channels (Rattus norvegicus, UniProt P55926+Q62962); assay: Patch-clamp, rat heteromeric ASIC1a+ASIC2a current in COS cells; format: cell-based; details: read-out: IC50, inhibition of the rat heteromeric ASIC1a+ASIC2a current, 2:1 ratio, whole cell patch-clamp
T2 construct: expressed in transfected cells; host or cells: COS cell line
T2 sequence (P55926 1-526): T1 sequence (P55926 1-526)
T2 sequence (Q62962 1-512): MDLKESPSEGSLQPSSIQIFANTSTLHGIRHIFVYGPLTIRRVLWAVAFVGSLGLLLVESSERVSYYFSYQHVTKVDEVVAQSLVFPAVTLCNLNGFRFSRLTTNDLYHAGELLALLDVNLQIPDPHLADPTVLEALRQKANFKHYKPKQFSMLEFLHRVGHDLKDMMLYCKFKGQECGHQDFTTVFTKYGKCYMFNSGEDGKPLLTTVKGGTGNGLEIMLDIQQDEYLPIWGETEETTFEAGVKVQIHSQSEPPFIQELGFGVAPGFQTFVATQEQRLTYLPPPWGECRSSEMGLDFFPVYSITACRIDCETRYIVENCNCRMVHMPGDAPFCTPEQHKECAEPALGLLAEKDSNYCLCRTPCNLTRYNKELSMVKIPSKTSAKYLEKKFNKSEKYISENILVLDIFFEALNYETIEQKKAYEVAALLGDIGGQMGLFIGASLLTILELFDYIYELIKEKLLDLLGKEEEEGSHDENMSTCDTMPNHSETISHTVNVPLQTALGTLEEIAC

[3] = Formol test (acute chemical and inflammatory pain) after intrathecal injection; format: in vivo; details: mice
[4] = system: ASIC current of dorsal cord neurons of mice; assay: Native ASIC current of mouse dorsal spinal cord neurons in primary culture (patch-clamp); format: cell-based; details: mouse embryo dorsal spinal cord neurons
[5] = biological target: T3, human homomeric ASIC2a channels (Homo sapiens, UniProt Q16515); assay: Patch-clamp, human homomeric ASIC2a current in COS cells; format: cell-based
T3 construct: expressed in transfected cells; host or cells: COS cell line
T3 sequence (Q16515 1-512): T2 sequence (Q62962 1-512) with T132S, L444I, E471D, M479V, A503T

[6] = biological target: T4, human homomeric ASIC3 channels (Homo sapiens, UniProt Q9UHC3); assay: Patch-clamp, human homomeric ASIC3 current in COS cells; format: cell-based
T4 construct: expressed in transfected cells; host or cells: COS cell line
T4 sequence (Q9UHC3 1-531): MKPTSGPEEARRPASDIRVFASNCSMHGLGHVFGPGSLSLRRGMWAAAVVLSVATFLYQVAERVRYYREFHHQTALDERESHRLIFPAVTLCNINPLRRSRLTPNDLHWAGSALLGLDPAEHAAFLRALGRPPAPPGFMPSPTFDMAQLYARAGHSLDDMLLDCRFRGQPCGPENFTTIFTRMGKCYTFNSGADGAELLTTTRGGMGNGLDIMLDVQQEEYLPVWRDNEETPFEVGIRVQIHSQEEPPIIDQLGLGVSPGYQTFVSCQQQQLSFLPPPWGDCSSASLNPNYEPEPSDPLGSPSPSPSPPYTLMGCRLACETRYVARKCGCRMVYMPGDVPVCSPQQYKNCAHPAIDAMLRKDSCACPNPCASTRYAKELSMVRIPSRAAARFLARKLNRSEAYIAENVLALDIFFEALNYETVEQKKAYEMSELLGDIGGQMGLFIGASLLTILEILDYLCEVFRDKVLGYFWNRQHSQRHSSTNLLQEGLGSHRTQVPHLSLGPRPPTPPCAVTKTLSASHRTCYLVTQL

[7] = IT injection 0.34 nmol, formol 2% in hind paw

LKCFQHGKVVTCHRDMKFCYHNTGMPFRNLKLILQGCSSSCSETENNKCCSTDRCNK (disulfide 3-19, 12-37, 41-49, 50-55) [ASICalgin-2]
pIC50 [1]: 6.65
pIC50 [2]: 6.51
analgesic effect in formol test, comparison ([3]; IT, ASICalgin-1 0.34 nmol, ASICalgin-2 0.2 nmol, morphine 31 nmol): effect identical to ASICalgin-1
inhibition of ASIC current of dorsal spinal cord neurons [4]: reversibly inhibit
inhibition of human homomeric ASIC2a channels [5]: do not inhibit
inhibition of human homomeric ASIC3 channels [6]: do not inhibit

LKCYQHGKVVTCHRDMKFCYHNTGMPFRNLKLILQGCSSSCSETENNKCCSTDRCNK (disulfide 3-19, 12-37, 41-49, 50-55) [ASICalgin-1]
pIC50 [1]: 6.65
pIC50 [2]: 6.51
effect of naxolone pretreatment on the analgesic effect, phases I and II ([3]; IT 0.34 nmol, naxolone 2 mg/kg sc 10 min before): has no effect
reduction of phase I pain (acute chemical pain, 0-10 min) [3, 7]: 40%
reduction of phase II pain (inflammatory pain, 10-45 min) [3, 7]: 70%
inhibition of ASIC current of dorsal spinal cord neurons [4]: reversibly inhibit
inhibition of human homomeric ASIC2a channels [5]: do not inhibit
inhibition of human homomeric ASIC3 channels [6]: do not inhibit
